Results reported in US9623077B2, “Use of peptide for alleviating pain” (Academia Sinica, priority 2015, dated 2017).
At least one peptide structure holds a part that was inferred or is arguable (an end, a ring closure or a residue). Where no end group is shown, it is not given here.

What was measured:
TGF-β1 = assay: Spinal TGF-β1 expression, immunohistochemistry in CCI rats; type: in vivo, rat
iNOS [1] = assay: LPS-induced iNOS expression in RAW 264.7 macrophages (Western blot); type: cell-based, murine; settings: RAW264.7 cells, 2.5, 5 or 10 μg/ml pre-treatment 10 minutes, then LPS 0.01 μg/ml 16 hours
IL-1β = assay: Spinal IL-1β expression, immunohistochemistry in CCI rats; type: in vivo, rat; settings: i.t. 20 μg, 30, 90, 180 minutes
iNOS [2] = assay: LPS-induced iNOS expression in BV2 microglial cells (Western blot); type: cell-based, murine; settings: BV2 cells, 2.5, 5 or 10 μg/ml for 10 minutes, then LPS 16 hours
astrocytes (GFAP) = assay: Spinal astrocyte activation, GFAP immunohistofluorescence in CCI rats; type: in vivo, rat; settings: i.t. 20 μg, 30, 90 and 180 minutes post-treatment
CCI rats [3] = assay: Cold allodynia test (acetone) in CCI rats; type: in vivo, rat; settings: i.t. 20 μg
phospho-mTOR = assay: Spinal phospho-mTOR expression, immunohistochemistry in CCI rats; type: in vivo, rat
microglia (OX42) = assay: Spinal microglia activation, OX42 immunohistofluorescence in CCI rats; type: in vivo, rat; settings: i.t. 20 μg, 30, 90 and 180 minutes post-treatment
COX-2 [4] = assay: LPS-induced COX-2 expression in BV2 microglial cells (Western blot); type: cell-based, murine; settings: BV2 cells, 2.5, 5 or 10 μg/ml for 10 minutes, then LPS 16 hours
COX-2 [5] = assay: LPS-induced COX-2 expression in RAW 264.7 macrophages (Western blot); type: cell-based, murine; settings: RAW264.7 cells, 2.5, 5 or 10 μg/ml pre-treatment 10 minutes, then LPS 0.01 μg/ml 16 hours
CCI rats [6] = assay: Weight-bearing test (incapacitance tester) in CCI rats; type: in vivo, rat; settings: i.t. 20 μg, between 30 and 210 minutes post-injection
CCI rats [7] = assay: Mechanical allodynia test (von Frey) in CCI rats; type: in vivo, rat; settings: i.t. 20 μg
[8] = i.t. 20 μg, 30, 90, 180 minutes
[9] = i.t. 20 μg, 180 minutes post injection

## FFHHIFRGIVHVGKTIHRLVTG [PCD-1, Piscidin-1]
TGF-β1; [8]
  CCI-induced down-regulation of TGF-β1 (immunoreactivity), dorsal horn of spinal cord: rescued
TGF-β1; [9]
  TGF-β1 in astrocytes and neuronal cells (double immunofluorescent staining): up-regulation
iNOS [1]
  iNOS expression (relative density in immunoblots): suppressed expression in a dose-dependent manner
IL-1β
  CCI-induced up-regulation of IL-1β (immunoreactivity), dorsal horn of spinal cord: significantly inhibits
iNOS [2]
  LPS-induced up-regulation of iNOS: attenuated in a dose-dependent manner
Astrocytes (GFAP)
  CCI-induced activation of astrocytes (GFAP immunoreactivity), dorsal horn of spinal cord: greatly reduced
CCI rats [3]
  time of peak anti-cold allodynia effect: 60 min
CCI rats [3]; at 30 minutes, vs vehicle
  cold allodynia response (acetone response score): increased anti-cold allodynia
phospho-mTOR; [8]
  CCI-induced up-regulation of phospho-mTOR (immunoreactivity), dorsal horn of spinal cord: attenuated
phospho-mTOR; [9]
  CCI-induced up-regulation of phospho-mTOR in astrocytes (double immunofluorescent staining): suppressed
Microglia (OX42)
  CCI-induced activation of microglia (OX-42 immunoreactivity), dorsal horn of spinal cord: significantly, but not completely, inhibits
COX-2 [4]
  LPS-induced up-regulation of COX-2: attenuated in a dose-dependent manner
COX-2 [5]
  COX-2 expression (relative density in immunoblots): suppressed expression in a dose-dependent manner
CCI rats [6]
  hind paw weight bearing distribution: greatly reduced
CCI rats [7]
  time of peak PWT: 60 min
CCI rats [7]; after 30 minutes, vs vehicle
  paw withdrawal threshold (PWT), mechanical allodynia: significant increase
